PubChem BioAssay AID493246 | Drosophila RNAi Screening Center, 2011

- Test: 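Identify essential fly genes by loss of cell viability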 (primary screen)
- Cell system: Drosophila Kc and S2R+ cells
- Reagent: long dsRNA against Drosophila genes
- Detection: 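Cell number per well after knock-down, printed as raw plate values; calls were based on per-plate z-scores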
- Reading the numbers: Kc cell number and S2R+ cell number: higher = more cells remaining
- Active means: 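Counted as a hit if cell number falls by a z-score of at least 3 within its plate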
The screen tested about 21,000 reagents; below is a random part of those that have a named target and a result. Over the whole deposit, 429 (2%) got an active call. 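Values are raw and not normalised between plates; calls rest on per-plate z-scores that were not deposited.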 Unmarked entries are inactive. A plus sign joins genes that one reagent is predicted to hit. Not given: the amount of reagent, the time to read-out.

| Gene | PubChem SID | Kc cell number, rep 1 | Kc cell number, rep 2 | S2R+ cell number, rep 1 | S2R+ cell number, rep 2 |
| --- | --- | --- | --- | --- | --- |
| slp2 | SID104180628 | 1.64e6 | 1.61e6 | 1.24e6 | 1.41e6 |
| pio | SID104184178 | 1.44e6 | 1.65e6 | 1.13e6 | 1.12e6 |
| Saf6 | SID104180425 | 1.29e6 | 1.31e6 | 7.41e5 | 9.15e5 |
| EloC | SID104187215 | 1.34e6 | 1.47e6 | 1.11e6 | 1.25e6 |
| Gr63a | SID104188230 | 1.35e6 | 1.23e6 | 1.01e6 | 1.18e6 |
| CG34461 | SID104190559 | 1.65e6 | 1.70e6 | 1.33e6 | 1.17e6 |
| stj | SID104185916 | 1.44e6 | 1.60e6 | 7.59e5 | 1.07e6 |
| CG32425 | SID104191531 | 8.28e5 (active) | 8.22e5 | 6.79e5 | 8.55e5 |
| CG32425 | SID104191556 | 1.52e6 | 1.55e6 | 1.30e6 | 1.35e6 |
| Gem4b + Gem4c | SID104197086 | 1.28e6 | 1.46e6 | 1.01e6 | 1.08e6 |
| eIF2Bdelta | SID104183850 | 1.49e6 | 1.57e6 | 1.10e6 | 1.20e6 |
| CG14841 | SID104194757 | 1.53e6 | 1.57e6 | 9.26e5 | 9.89e5 |
| CG15044 | SID104199412 | 1.69e6 | 1.73e6 | 1.20e6 | 1.33e6 |
| Hpr1 | SID104192088 | 1.55e6 | 1.62e6 | 1.44e6 | 1.49e6 |
| Dis3l2 | SID104188288 | 1.32e6 | 1.36e6 | 1.28e6 | 1.24e6 |
| CG4480 | SID104182542 | 1.47e6 | 1.59e6 | 1.28e6 | 1.42e6 |
| CG43347 | SID104197774 | 1.58e6 | 1.47e6 | 9.62e5 | 1.03e6 |
| CG43347 | SID104198238 | 9.13e5 (active) | 9.54e5 | 4.82e5 | 5.94e5 |
| Nnk | SID104195066 | 1.42e6 | 1.50e6 | 1.08e6 | 1.12e6 |
| Cyp4ac3 | SID104183096 | 1.38e6 | 1.72e6 | 8.29e5 | 3.76e5 |
| CG5906 | SID104190349 | 1.43e6 | 1.35e6 | 1.22e6 | 1.38e6 |
| Bdp1 | SID104182984 | 1.33e6 | 1.46e6 | 1.13e6 | 1.13e6 |
| upSET | SID104190843 | 8.66e5 (active) | 1.05e6 | 8.06e5 | 8.99e5 |
| Rpn13 | SID104186171 | 1.52e6 | 1.50e6 | 1.12e6 | 1.34e6 |
